Laboratory results published in the supplement of paper PMC12823440, “Inhibitors supercharge kinase turnover through native proteolytic circuits” (Nature, 2025).
Where a name gives a salt, the structure may show the parent alone. The list shows a part of the results. The calls rarely recur for the same compound in another form.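 In K562 cells expressing nanoluciferase-fused kinases, luminescence was recorded at 4 h intervals between 2 and 18 h, normalized as percent of control with DMSO at 100% and a positive control at 0%. A significant (2 sigma) signal drop marks a time point as decreased. The authors' rule for a hit is not shown and takes in more than the number of time points.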

These molecules were tested against EGFR_T790M (UniProt P00533) (assay: kinase-Nluc reporter destabilization hit call (1 = scored as downregulated) (binary); higher = compound decreases kinase abundance). Settings: K562; 2-18 h.

kinase-Nluc reporter destabilization hit call, inactive:
O=c1cc(-c2ccc(O[C@@H]3O[C@H](CO)[C@@H](O)[C@H](O)[C@H]3O)cc2)oc2cc(O)c([C@@H]3O[C@H](CO)[C@@H](O)[C@H](O)[C@H]3O[C@@H]3OC[C@H](O)[C@H](O)[C@H]3O)c(O)c12 [Vaccarin] (10 µM) 0
O=CN1CCN(c2ccc(C=C3C(=O)Nc4ccccc43)cc2)CC1 (10 µM) 0
COc1ccc(Cl)cc1N(CC(=O)Nc1ccc2c(c1)OCO2)S(=O)(=O)c1ccccc1 (2.5 µM) 0
CCc1c(C(=O)NNC(=O)[C@H](O)c2cc(F)cc(F)c2)ccc(O)c1C (10 µM) 0
CN(C)CCn1cc2cc(NC(=O)c3cccc(C(F)(F)F)n3)c(C(C)(C)O)cc2n1 (10 µM) 0
CCC[C@H](C)Oc1nc(N)c2[nH]c(=O)n(CCCCCN3CCCCC3)c2n1 (10 µM) 0
CCOC(=O)c1c(C)[nH]c(C=C2C(=O)Nc3ccccc32)c1C (10 µM) 0
Cc1ccc(NC(=O)N2CCN(c3nc(N)nc4sc(-c5cccnc5)nc34)CC2)cc1 [PI4KIII beta inhibitor 3] (10 µM) 0
CS[C@@]1(C(=O)Nc2ccc3[nH]nc(-c4ccc(OC(C)C)nc4)c3c2)CCN(CC(=O)N2CC=C(c3ccc(-c4ncn(C)n4)cc3)CC2)C1 (2.5 µM) 0
O=C(Nc1ccc(Cl)cc1)C1CN(C(=O)c2cccc(-c3ccco3)c2)CC(F)(F)C1 (stereo not drawn) (2.5 µM) 0
Nc1ccc(Sc2nc3ccccc3s2)c(Cl)c1 [KRAS inhibitor-9] (10 µM) 0
Cn1c(N2CCO[C@@H](c3ccc(F)cc3)C2)nc(-c2ccncn2)cc1=O (10 µM) 0
COc1ccc(CN2CCC(c3ccc4nc(C(=O)N5CCN(Cc6ccc(C(F)(F)F)cc6)CC5)[nH]c4c3)CC2)cn1 (2.5 µM) 0
O=C(O)c1c[nH]c2cc(Cl)c(-c3ccc(C4(O)CCC4)cc3)cc12 (10 µM) 0
CC(C)(Oc1ccc(Cl)cc1)C(=O)Nc1ccc(OCc2ccc(C#N)cc2)cc1 [AMPK activator 4] (10 µM) 0
O=C(NCc1ccn[nH]1)c1cc([C@@H]2CCNC[C@H]2COc2ccc3c(c2)OCO3)ccc1F [GRK2-IN-1 (hydrochloride)] (10 µM) 0
Cc1cnc(Cl)nc1-c1ccc(N(Cc2ccc(CNC(=O)C(F)F)cc2)C(=O)c2ccc(O)cc2O)cc1 (10 µM) 0
CC1=C(C#N)C(c2ccc3[nH]nc(C)c3c2)C(C#N)=C(C)N1 (10 µM) 0
CN(C[C@@H]1COCCO1)S(=O)(=O)Nc1ccc2ccc3ncc(-c4cnn(C)c4)cc3c(=O)c2c1 (2.5 µM) 0
CC(=O)Nc1nc(C)c(-c2cc(C)c3c(c2)CN([C@@H](C)C2CC2)C3=O)s1 (10 µM) 0
O=C(Nc1ccccc1C(=O)NC1CCCCNC1=O)c1cc2ccccc2s1 (stereo not drawn) (10 µM) 0
CO[C@]1(C(=O)N[C@@H](C)c2ccc(-n3cc(F)cn3)nc2)CC[C@H](c2nc(C)cc(Nc3cc(C)[nH]n3)n2)CC1 [Pralsetinib] (10 µM) 0
O=[N+]([O-])c1ccc(-c2nc(-c3ccc(F)cc3)c(-c3ccncc3)[nH]2)cc1 (10 µM) 0
CC(ONC(=O)c1cc(C(F)(F)F)cc(C(F)(F)F)c1)C(=O)Nc1ccc(Cl)cc1 (stereo not drawn) (2.5 µM) 0
Cc1cncc2cccc(S(=O)(=O)N3CCCNC[C@@H]3C)c12 [H-1152 (dihydrochloride)] (10 µM) 0
Cc1nc(NC(=O)N2CCC[C@H]2C(N)=O)sc1-c1ccnc(C(C)(C)C(F)(F)F)c1 [Alpelisib] (2.5 µM) 0
CCCCNc1ncc2c(-c3ccc(F)cc3)nn(CC3CCC(N)CC3)c2n1 (stereo not drawn) (2.5 µM) 0
CS(=O)(=O)c1ccc([C@@H](CC2CCCC2)C(=O)Nc2nccs2)cc1 (10 µM) 0
CO/N=C1/C(c2c(O)[nH]c3cc(Cl)c(Cl)cc23)=Nc2ccccc21 (10 µM) 0
CNCc1ccccc1Sc1cccc2ccccc12 [IFN alpha-IFNAR-IN-1 (hydrochloride)] (10 µM) 0
C=CC(=O)N1CCC(c2ccc(C(N)=O)c(-c3ccc(Oc4ccccc4)cc3)n2)CC1 [Orelabrutinib] (2.5 µM) 0
Cc1cc2c(F)c(Oc3ncnn4cc(OC[C@@H](C)OC(=O)[C@H](C)N)c(C)c34)ccc2[nH]1 [Brivanib (alaninate)] (10 µM) 0
CCC(F)(F)c1cc(N2CCC(S(C)(=O)=O)CC2)nc2sc(C(N)=O)c(N)c12 (10 µM) 0
NC(=O)c1c(NC(=O)C2CC2)sc2c1CCCC2 (10 µM) 0
CC(C)=CCC[C@](C)(O[C@@H]1O[C@H](CO[C@@H]2O[C@H](CO)[C@@H](O)[C@H](O)[C@H]2O)[C@@H](O)[C@H](O)[C@H]1O)[C@H]1CC[C@]2(C)[C@@H]1[C@H](O)C[C@@H]1[C@@]3(C)CC[C@H](O[C@@H]4O[C@H](CO)[C@@H](O)[C@H](O)[C@H]4O[C@@H]4O[C@H](CO)[C@@H](O)[C@H](O)[C@H]4O)C(C)(C)[C@@H]3CC[C@]12C [Ginsenoside Rb1] (10 µM) 0
COc1cccc(-c2cc(=O)c3ccccc3o2)c1N (10 µM) 0
C[C@@H]1COC(Nc2ccc3ncnc(Nc4ccc(OCc5nccs5)c(Cl)c4)c3c2)=N1 [Varlitinib] (10 µM) 0
Cc1nc(Nc2cnn(C3CCNCC3)c2)nc2c1N(C)C(=O)c1cc3ccccc3cc1N2C (2.5 µM) 0

2 neighbouring entries already listed, quoted:
kinase-Nluc reporter destabilization hit call, inactive:
O=C(Nc1ccc(Cl)cc1)C1CN(C(=O)c2cccc(-c3ccco3)c2)CC(F)(F)C1 (stereo not drawn) (2.5 µM) 0
Nc1ccc(Sc2nc3ccccc3s2)c(Cl)c1 [KRAS inhibitor-9] (10 µM) 0
